Laboratory results from the supplement of paper PMC4604168 (melanoma cell lines).
This is one part of the list. Many values rest on one well or one pass, so single values are uncertain.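 The apoptosis fraction was the count of cleaved-PARP antibody-stained nuclei relative to all DNA-stained nuclei, imaged in 1,536-well plates. Screening doses were set so most cells survived, and baseline and induced cleaved-PARP levels vary greatly across cell lines.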

system: MEL-HO; assay: cleaved PARP positive nuclei fraction relative to DMSO control; melanoma cells; higher = more apoptosis; settings: library dose: low library concentration; 72 h

Row | Structure (SMILES) | cleaved PARP positive nuclei fraction
1 | Cc1cn(-c2cc(NC(=O)c3ccc(C)c(Nc4nccc(-c5cccnc5)n4)c3)cc(C(F)(F)F)c2)cn1 [nilotinib] + CN(c1ncccc1CNc1nc(Nc2ccc3c(c2)CC(=O)N3)ncc1C(F)(F)F)S(C)(=O)=O [PF562271] (first compound 0.2 µM, partner dose 0.08 µM) | 59.6%
2 | CC[C@]1(O)C[C@H]2CN(CCc3c([nH]c4ccccc34)[C@@](C(=O)OC)(c3cc4c(cc3OC)N(C=O)[C@H]3[C@@](O)(C(=O)OC)[C@H](OC(C)=O)[C@]5(CC)C=CCN6CC[C@]43[C@@H]65)C2)C1 [vincristine] + COCC[n+]1c2c(n(Cc3cnccn3)c1C)C(=O)c1ccccc1C2=O [YM155] (first compound 0.0001 µM, partner dose 0.0004 µM) | 129%
3 | Cc1cn(-c2cc(NC(=O)c3ccc(C)c(Nc4nccc(-c5cccnc5)n4)c3)cc(C(F)(F)F)c2)cn1 [nilotinib] + O=C(O)[C@@H]1[O][Sb](=[O])([O][Sb]2(=[O])[O][C@H]([C@H](O)CO)[C@H](O)[C@H](C(=O)O)[O]2)[O][C@H]([C@H](O)CO)[C@@H]1O [stibogluconate] (first compound 0.2 µM, partner dose 2 µM) | 39.5%
4 | COc1cc([C@@H]2c3cc4c(cc3[C@@H](O[C@@H]3O[C@@H]5CO[C@@H](C)O[C@H]5[C@H](O)[C@H]3O)[C@H]3COC(=O)[C@H]23)OCO4)cc(OC)c1O [etoposide] + CCCCCCCCCCCCCCCCCCOP(=O)([O-])OC1CC[N+](C)(C)CC1 [Perifosine] (first compound 0.02 µM, partner dose 0.4 µM) | 119%
5 | O=C(/C=C/c1cccnc1)NCCCCC1CCN(C(=O)c2ccccc2)CC1 + CS(=O)(=O)c1ccc(C(=O)Nc2ccc(Cl)c(-c3ccccn3)c2)c(Cl)c1 [vismodegib] (first compound 0.01 µM, partner dose 1 µM) | 185%
6 | O=C(Nc1cc(C(F)(F)F)cc(C(F)(F)F)c1)c1cc(Cl)ccc1O + CCCCCCCCc1ccc(CCC(N)(CO)CO)cc1 [fingolimod] (first compound 0.016 µM, partner dose 2 µM) | 63.6%
7 | CC[C@]1(O)C[C@H]2CN(CCc3c([nH]c4ccccc34)[C@@](C(=O)OC)(c3cc4c(cc3OC)N(C=O)[C@H]3[C@@](O)(C(=O)OC)[C@H](OC(C)=O)[C@]5(CC)C=CCN6CC[C@]43[C@@H]65)C2)C1 [vincristine] + CCCCCCCCCCCCCCCCCCOP(=O)([O-])OC1CC[N+](C)(C)CC1 [Perifosine] (first compound 0.0001 µM, partner dose 0.4 µM) | 201%
8 | Cc1cc(Nc2cc(N3CCN(C)CC3)nc(Sc3ccc(NC(=O)C4CC4)cc3)n2)n[nH]1 [Tozasertib] + C#Cc1cccc(Nc2ncnc3cc(OCCOC)c(OCCOC)cc23)c1 [erlotinib] (first compound 0.006 µM, partner dose 0.8 µM) | 96.5%
9 | Cc1cc(Nc2cc(N3CCN(C)CC3)nc(Sc3ccc(NC(=O)C4CC4)cc3)n2)n[nH]1 [Tozasertib] + CO[C@H]1C[C@@H]2CC[C@@H](C)[C@@](O)(O2)C(=O)C(=O)N2CCCC[C@H]2C(=O)O[C@H]([C@H](C)C[C@@H]2CC[C@@H](OCCO)[C@H](OC)C2)CC(=O)[C@H](C)/C=C(\C)[C@@H](O)[C@@H](OC)C(=O)[C@H](C)C[C@H](C)/C=C/C=C/C=C/1C [everolimus] (first compound 0.006 µM, partner dose 0.02 µM) | 285%
10 | Cc1ccc(Nc2nccc(N(C)c3ccc4c(C)n(C)nc4c3)n2)cc1S(N)(=O)=O [Pazopanib] + C#Cc1cccc(Nc2ncnc3cc(OCCOC)c(OCCOC)cc23)c1 [erlotinib] (first compound 0.4 µM, partner dose 0.8 µM) | 204%
11 | CCCCCCCCCCCCCCCCCCOP(=O)([O-])OC1CC[N+](C)(C)CC1 [Perifosine] + C=C(c1ccc(C(=O)O)cc1)c1cc2c(cc1C)C(C)(C)CCC2(C)C [Bexarotene] (first compound 0.4 µM, partner dose 2 µM) | 138%
12 | O=c1[nH]nc(Sc2ncc([N+](=O)[O-])s2)n1-c1ccc2c(c1)OCCO2 + Cc1cc(Nc2cc(N3CCN(C)CC3)nc(/C=C/c3ccccc3)n2)n[nH]1 [ENMD2076] (first compound 0.2 µM, partner dose 0.04 µM) | 57.6%
13 | CCCCCCCCCCCCCCCCCCOP(=O)([O-])OC1CC[N+](C)(C)CC1 [Perifosine] + Clc1ccc(Nc2nnc(Cc3ccncc3)c3ccccc23)cc1 [vatalanib] (first compound 0.4 µM, partner dose 2 µM) | 102%
14 | Cc1cn(-c2cc(NC(=O)c3ccc(C)c(Nc4nccc(-c5cccnc5)n4)c3)cc(C(F)(F)F)c2)cn1 [nilotinib] + Cn1nnc2c(C(N)=O)ncn2c1=O [temozolomide] (first compound 0.2 µM, partner dose 2 µM) | 76.4%

A different layout for some results above.
O=C(Nc1cc(C(F)(F)F)cc(C(F)(F)F)c1)c1cc(Cl)ccc1O + CCCCCCCCc1ccc(CCC(N)(CO)CO)cc1 [fingolimod] (first compound 0.016 µM, partner dose 2 µM)
  cleaved PARP positive nuclei fraction: 63.6%
Cc1cc(Nc2cc(N3CCN(C)CC3)nc(Sc3ccc(NC(=O)C4CC4)cc3)n2)n[nH]1 [Tozasertib] + C#Cc1cccc(Nc2ncnc3cc(OCCOC)c(OCCOC)cc23)c1 [erlotinib] (first compound 0.006 µM, partner dose 0.8 µM)
  cleaved PARP positive nuclei fraction: 96.5%
